PubChem BioAssay AID1259308 – NCATS – 2017

Aim: 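Genes whose loss raises luciferase production in HEK293 cells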 (primary screen)
Cell system: human HEK293 embryonic kidney cells stably expressing firefly luciferase (HEK-CMV-Luc2-Hygro)
Knock-down reagent: single siRNA against human genes, 0.8 pmol siRNA per well
Timing: 72 h
Measurement: 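Luciferase light (ONE-Glo) measured on one replicate plate set and viability (CellTiter-Glo) on the other, scaled to a negative control siRNA, with robust z-scores and luciferase per cell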
Reading the numbers: total luciferase, z-score and total luciferase, % of control: higher = more reporter protein produced; luciferase per cell, z-score: higher = more reporter output per viable cell; viable cells, % of control: higher = more viable cells
Rule for the call: 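Active when the median/MAD z-score for overall luciferase is greater than 3; a gene was taken forward for validation with new siRNAs if at least two of its three siRNAs passed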
Calls: active = raised luciferase; inactive = no rise
The deposit covers about 59,000 reagents; this is a random part of them. Of all reagents, about 1,510 (2.6%) got an active call. 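Calls use total luciferase alone and ignore viability, so some active siRNAs may act by altering cell number.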 A number with no mark means an inactive call. The numbers tell different reagents against one gene apart. Reagent sequences are not shown.

| total luciferase, z-score | total luciferase, % of control | luciferase per cell, z-score | viable cells, % of control | gene knocked down | reagent no. |
| --- | --- | --- | --- | --- | --- |
| -2.78 | 26.5 | -2.75 | 61.2 | DNASE2 | 1 |
| -0.21 | 77.7 | -0.173 | 90.9 | DNASE2 | 2 |
| 1.08 | 103 | 2.77 | 55.6 | DNASE2 | 3 |
| -0.481 | 72.3 | 0.652 | 68.1 | LINC01098 | 1 |
| -0.279 | 76.3 | 0.332 | 78.2 | LINC01098 | 2 |
| 0.172 | 85.3 | -0.522 | 109 | LINC01098 | 3 |
| 0.524 | 92.3 | -0.254 | 110 | COX6A1 | 1 |
| 1.37 | 109 | 1.1 | 91.4 | COX6A1 | 2 |
| 0.488 | 91.6 | 0.146 | 98.5 | COX6A1 | 3 |
| 3.14 (active) | 144 | 1.7 | 103 | GOLGA2P10 | 1 |
| 1.27 | 107 | 1.18 | 87.8 | GOLGA2P10 | 2 |
| 0.502 | 91.9 | 0.852 | 82 | GOLGA2P10 | 3 |
| -1.39 | 54.2 | -0.791 | 74.6 | OR2C3 | 1 |
| -1.12 | 59.5 | 0.184 | 63.4 | OR2C3 | 2 |
| 0.0869 | 83.6 | -0.736 | 113 | OR2C3 | 3 |
| -0.37 | 74.5 | -0.32 | 90.6 | MTSS1 | 1 |
| 1.97 | 121 | 1.67 | 87.2 | MTSS1 | 2 |
| -0.595 | 70.1 | -0.559 | 90.7 | MTSS1 | 3 |
| -1.18 | 58.4 | -0.503 | 74.5 | KRT86 | 1 |
| 0.863 | 99.1 | 0.598 | 94.6 | KRT86 | 2 |
| -0.356 | 74.8 | -0.366 | 92.1 | KRT86 | 3 |
| -0.678 | 68.4 | -0.19 | 80.4 | KRT86 | 4 |
| -1 | 61.9 | -1.8 | 111 | KRT86 | 5 |
| 0.236 | 86.6 | 0.243 | 90.7 | KRT86 | 6 |
| 9.02 (active) | 261 | 4.79 | 82.7 | PNMA2 | 1 |
| -1.12 | 59.7 | -1.22 | 91.9 | PNMA2 | 2 |
| 1.09 | 104 | 1.06 | 87.6 | PNMA2 | 3 |
| -0.573 | 70.5 | 0.267 | 73.4 | TRIM44 | 1 |
| 1.59 | 113 | 0.764 | 104 | TRIM44 | 2 |
| -0.634 | 69.3 | -0.645 | 91.7 | TRIM44 | 3 |
| 1.72 | 116 | 2.6 | 65.3 | LINC01874 | 1 |
| 0.367 | 89.2 | 1.19 | 72.9 | LINC01874 | 2 |
| -0.707 | 67.8 | -0.298 | 82 | LINC01874 | 3 |
| 0.171 | 85.3 | -0.198 | 100 | TGM4 | 1 |
| 0.513 | 92.1 | 0.136 | 99.3 | TGM4 | 2 |
| 0.675 | 95.3 | 0.459 | 94.4 | TGM4 | 3 |
| -0.447 | 73 | -0.82 | 101 | SYNGR2 | 1 |
| -0.209 | 77.7 | -0.35 | 95.2 | SYNGR2 | 2 |
| -0.22 | 77.5 | 0.321 | 79.6 | SYNGR2 | 3 |
| -0.117 | 79.6 | -0.142 | 92.3 | MRPS18B | 1 |
| 0.303 | 87.9 | 0.444 | 87.4 | MRPS18B | 2 |
| 1.61 | 114 | 0.5 | 112 | MRPS18B | 3 |
| 0.428 | 90.4 | 0.192 | 96 | NHLRC3 | 1 |
| 0.696 | 95.7 | 0.839 | 85.8 | NHLRC3 | 2 |
| 0.343 | 88.7 | -0.832 | 123 | NHLRC3 | 3 |
| -0.66 | 68.8 | -0.448 | 86.5 | CDC42EP4 | 1 |
| 1.45 | 111 | 0.897 | 97.7 | CDC42EP4 | 2 |
| 0.761 | 97 | 0.286 | 101 | CDC42EP4 | 3 |
| 0.909 | 100 | 1.51 | 75 | ERCC6L2 | 1 |
| -0.321 | 75.5 | 0.543 | 73.1 | ERCC6L2 | 2 |
| -1.02 | 61.6 | -0.975 | 88.9 | ERCC6L2 | 3 |
| -0.12 | 79.5 | 0.313 | 81.8 | ERCC6L2 | 4 |
| -2.16 | 39 | -2.08 | 75.2 | ERCC6L2 | 5 |
| -1.98 | 42.5 | -2.15 | 83.6 | ERCC6L2 | 6 |
| 3.4 (active) | 149 | 2.35 | 90 | LINC00847 | 1 |
| 1.2 | 106 | 0.563 | 102 | LINC00847 | 2 |
| 0.561 | 93 | 0.534 | 90.3 | LINC00847 | 3 |

Part of the list above, showing only “luciferase per cell, z-score”.
SYNGR2 #2	-0.35
SYNGR2 #3	0.321
MRPS18B #1	-0.142
MRPS18B #2	0.444
MRPS18B #3	0.5
NHLRC3 #1	0.192
